Test results from patent publication US20110151034A1, “ANTIBACTERIAL AGENT AND DISINFECTING METHOD” (Mitsubishi Chemical Corporation, priority 2008, published 2011).
At least one structure is not confirmed: it was looked up by name or label, or the drawing left a doubt.

Tested on: Listeria monocytogenes ATCC49594
Assay: Antibacterial test in BHI culture medium: turbidity, inhibitory ratio and bacteria growth (Experimental Example 2)
Type: cell-based
Conditions: 50, 100, 200 ppm, same conditions as for Terpenoid-1 and Terpenoid-2
Protocol: The above obtained isolated components were diluted with dimethylsulfoxide (manufactured by KANTO CHEMICAL CO., INC.) to prepare three test liquids at fraction concentrations (wt %) of 2%, 1% and 0.5%. As positive controls, erythromycin (manufactured by Wako Pure Chemical Industries Ltd.) was dissolved in ethanol (Junsei Chemical Co., Ltd.) to have a concentration of 1,000 ppm, 500 ppm or 250 ppm. As a negative control, sterilized water was used.
The antibacterial test was carried out by using Listeria monocytogenes ATCC49594 as follows. […]
The turbidity of the culture fluid in the test tube left at rest at 30° C. for 24 hours was measured by a turbidimeter (manufactured by TAITEC CORPORATION, miniphoto 518R) at a wavelength of 660 nm. The inhibitory ratio was calculated from the following formula, where A is the turbidly in the case of a culture fluid to which 0.1 ml of dimethylsulfoxide was added instead of the test liquid. […]
The culture fluid in the test tube left at rest at 30° C. for 24 hours was diluted with a phosphate buffer solution (PBS) and smeared on a BHI agar medium. After culturing at 37° C. for 24 hours, the number of bacteria on the agar medium was measured by observation with a microscope. […]

Structure (SMILES): C=C(C)[C@@H]1CC[C@]2(C(=O)O)CC[C@]3(C)[C@H](CC[C@@H]4[C@@]5(C)CC[C@H](O)C(C)(C)[C@@H]5CC[C@]43C)[C@@H]12 [Betulinic acid]
- antibacterial activity against Listeria monocytogenes (in words): low or no antibacterial activity
